For the assay, the target named is T1, MZB1 (mouse (endogenous in K46 B cells)) (UniProt Q9D8I1).
T1 sequence: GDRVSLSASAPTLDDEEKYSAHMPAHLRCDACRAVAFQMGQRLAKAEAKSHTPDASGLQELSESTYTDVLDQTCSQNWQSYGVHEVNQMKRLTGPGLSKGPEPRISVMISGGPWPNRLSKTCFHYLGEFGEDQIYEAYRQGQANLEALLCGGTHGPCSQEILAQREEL
As to the kind of experiment: co-IP; lysates of K46 B cells expressing HA-tagged IFNA2, treated with BD Golgi stop for 5 h; anti-Mzb1 monoclonal antibody or IgG control on Protein-G Dynabeads, 4 h at 4 °C; lysis buffer 20 mM HEPES pH 7.6, 0.1% NP40, 150 mM NaCl, 10% glycerol; immunoblot with MZB1- and HA-specific antibodies. Background: In western blotting, separated proteins are transferred to a membrane and probed.

These are yes or no findings as the source states them, for the method shown. In cells and extracts the contact can be indirect. Some binding calls cover weakened binding; strength is not graded here. Where a sequence is shown, tags or fusion partners need not be part of it.

B1: HA-tagged IFNA2 (protein, UniProt P01573 24-190)
chain: CDLPHTYNLRNKRALKVLAQMRRLPFLSCLKDRQDFGFPLEKVDNQQIQKAQAIPVLRDLTQQTLNLFTSKASSAAWNATLLDSFCNDLHQQLNDLQTCLMQQVGVQEPPLTQEDALLAVRKYFHRITVYLREKKHSPCAWEVVRAEVWRALSSSVNLLPRLSEEKE
On to B1, for which the binding entry is recorded as “binds”.

The values above are taken from article PMC7736851.
